Data as given in PubChem BioAssay AID743121 (NCATS, 2013).

- Screen: 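Partners whose loss is lethal together with topoisomerase I blockade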 (primary screen)
- Cells: MDA-MB-231 cells, a human breast cancer line
- Reagents: single siRNA against human genes, 20 nM siRNA (0.8 pmol per well)
- Time to read-out: 120 h (drug added 48 h after transfection, read 72 h later)
- Treatment: camptothecin 20 nM (about EC30) for 72 h; vehicle 0.1% DMSO in parallel plates
- Measurement: 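Cell viability by ATP luminescence (CellTiter-Glo) as % of non-targeting siRNA wells, and the log2 ratio of viability without drug over viability with camptothecin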
- Scale: log2 vehicle/camptothecin viability: higher = stronger sensitisation to camptothecin
- Active means: 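Active genes have an RSA gene-level p-value below 0.001, computed from the ratios of their separate siRNAs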
Shown is an unselected part of about 26,000 deposited reagents. 167 of all reagents (0.63%) count as active. 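Calls are per gene from RSA p-values that are not deposited; an individual active-marked siRNA can sensitise only weakly.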 Reagents against one gene are numbered here. Not all columns of the deposit are shown.

PMVK (GeneID 10654) #1: log2 vehicle/camptothecin viability = -0.165; Outcome = inactive
PMVK (GeneID 10654) #2: log2 vehicle/camptothecin viability = -0.526; Outcome = inactive
PMVK (GeneID 10654) #3: log2 vehicle/camptothecin viability = -0.121; Outcome = inactive
PMVK (GeneID 10654) #4: log2 vehicle/camptothecin viability = 0.249; Outcome = inactive
USP32 (GeneID 84669) #1: log2 vehicle/camptothecin viability = -0.227; Outcome = inactive
USP32 (GeneID 84669) #2: log2 vehicle/camptothecin viability = -0.187; Outcome = inactive
USP32 (GeneID 84669) #3: log2 vehicle/camptothecin viability = -0.0121; Outcome = inactive
USP32 (GeneID 84669) #4: log2 vehicle/camptothecin viability = 0.159; Outcome = inactive
GEMIN5 (GeneID 25929) #1: log2 vehicle/camptothecin viability = -0.394; Outcome = inactive
GEMIN5 (GeneID 25929) #2: log2 vehicle/camptothecin viability = -0.517; Outcome = inactive
GEMIN5 (GeneID 25929) #3: log2 vehicle/camptothecin viability = -0.133; Outcome = inactive
GEMIN5 (GeneID 25929) #4: log2 vehicle/camptothecin viability = 0.0914; Outcome = inactive
MICA (GeneID 100507436) #1: log2 vehicle/camptothecin viability = -0.0458; Outcome = inactive
MICA (GeneID 100507436) #2: log2 vehicle/camptothecin viability = 0.0728; Outcome = inactive
MICA (GeneID 100507436) #3: log2 vehicle/camptothecin viability = -0.237; Outcome = inactive
